Measurements reported in article PMC12864879.
Results are given in words; binding and its absence hold for the method and conditions named.

The chains behind the UniProt entries cited, without tags or fusion partners. Where a name states a change or a piece, a line headed by the entry shows the natural chain unless it says otherwise.
UniProt P60953: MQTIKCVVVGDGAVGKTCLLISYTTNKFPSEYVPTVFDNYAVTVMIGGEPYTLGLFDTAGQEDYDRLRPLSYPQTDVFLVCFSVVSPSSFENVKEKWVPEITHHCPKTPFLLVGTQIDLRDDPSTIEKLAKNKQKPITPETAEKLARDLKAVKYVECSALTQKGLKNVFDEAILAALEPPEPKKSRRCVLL

Target: GTP-loaded Cdc42 G12V (UniProt P60953)
Assay: recruitment to supported lipid bilayers on nanobar arrays (spinning-disc confocal fluorescence microscopy); fluorescently labelled purified proteins premixed in PBS for 2 min, added to SLB (POPC, 10% POPS, 1% PI(4,5)P2, 0.5% Rhodamine-PE) on quartz nanobars of 200-1000 nm width; imaged after 30 min at room temperature; signal at nanobar ends normalised to the lipid signal; e.g. 200 nM AF647-FBP17 with 50 nM AF488-N-WASP, titrations at F:N = 4:1, FBP17 or FdHR1 with or without GTP-loaded Cdc42 G12V; both purified

B1: FBP17 ΔHR1 (deleted aa 401–485) (protein, UniProt Q96RU3)
chain: MSWGTELWDQFDNLEKHTQWGIDILEKYIKFVKERTEIELSYAKQLRNLSKKYQPKKNSKEEEEYKYTSCKAFISNLNEMNDYAGQHEVISENMASQIIVDLARYVQELKQERKSNFHDGRKAQQHIETCWKQLESSKRRFERDCKEADRAQQYFEKMDADINVTKADVEKARQQAQIRHQMAEDSKADYSSILQKFNHEQHEYYHTHIPNIFQKIQEMEERRIVRMGESMKTYAEVDRQVIPIIGKCLDGIVKAAESIDQKNDSQLVIEAYKSGFEPPGDIEFEDYTQPMKRTVSDNSLSNSRGEGKPDLKFGGKSKGKLWPFIKKNKLMSLLTSPHQPPPPPPASASPSAVPNGPQSPKQQKEPLSHRFNEFMTSKPKIHCFRSLKRGLSLKLGATPELPARSEQARRQSGLYDSQNPPTVNNCAQDRESPDGSYTEEQSQESEMKVLATDFDDEFDDEEPLPAIGTCKALYTFEGQNEGTISVVEGETLYVIEEDKGDGWTRIRRNEDEEGYVPTSYVEVCLDKNAKDS
modifications: Alexa Fluor dye on primary amines
binding: no binding
